# At least one structure is not confirmed: it was looked up by name or label, or the drawing left a doubt.
# Assays:
# Assay type in all cases: in vivo, C57BL/6 (B6) mice
# [1] = test system: FMO3; test: Hepatic FMO3 mRNA expression by RT-qPCR; details: female B6 mice, 6 weeks; normalized to GAPDH
# Description: (§1) Six-week-old female C57BL/6 (B6) mice were purchased from BioLASCO (Taipei, Taiwan) and were acclimatized for 1 week. Mice were fed ad libitum with experimental diets, LabDiet Rodent 5001. The animal use protocol listed below has been reviewed and approved by the Institutional Animal Care and Use Committee (NTU105-EL-00115). In the experiment, mice were randomly divided into four groups: normal diet, 1.3% carnitine water, 1.3% carnitine water with 0.05% pterostilbene diet (around 250 mg/kg/day), and 1.3% carnitine water with antibiotic cocktail for 6 weeks. Mice received a cocktail of oral antibiotics (vancomycin 500 mg/L, metronidazole 1 g/L, neomycin 1 g/L, and ampicillin 1 g/L in drinking water) for 6 weeks. […] At the end of the six-week study, mice were euthanized by CO2 asphyxiation.
# (§2) Hepatic and aortic RNA was extracted using TRIzol reagent. Phase separation was performed by adding 200 μl chloroform/1 mlTRIzol. […]
# (§3) Quality of RNA and RNA concentrations were then quantified using NanoDrop 1000 spectrophotometer. […]
# (§4) mRNA levels were determined by quantitative real-time PCR usingStepOnePlus Real-Time PCR system and SYBR Green master mix as compared to constitutively expressed gene (GAPDH) using the relative quantification method (ΔΔCt), Primer sequences for SYBR Green reactions were designed and synthesized by Mission Biotech.
# [2] = test system: E-selectin; test: Aortic vascular inflammation gene expression by qPCR (E-selectin); details: female B6 mice, 1.3% carnitine water, 6 weeks; mRNA normalized to GAPDH
# Description: as §1, §2, §3, §4
# [3] = test system: VCAM-1; test: Aortic vascular inflammation gene expression by qPCR (VCAM-1); details: female B6 mice, 1.3% carnitine water, 6 weeks; mRNA normalized to GAPDH
# Description: as §1, §2, §3, §4
# [4] = test system: TNF-α; test: Aortic vascular inflammation gene expression by qPCR (TNF-α); details: female B6 mice, 1.3% carnitine water, 6 weeks; mRNA normalized to GAPDH
# Description: as §1, §2, §3, §4
# [5] = Plasma carnitine level by LC-MS/MS; details: female B6 mice, 1.3% carnitine water, 6 weeks
# [6] = test system: cecal microbiota; test: Cecal microbiota composition by 16S rRNA gene sequencing; details: mouse cecum
# Description: as §1
# Microbial community composition was assessed by pyrosequencing 16S rRNA genes derived from mouse cecum (n=3 for each group). Total DNA was isolated and purified using InnuSPEED Stool DNA kit according to the manufacturer's instructions. The quality of DNA samples was assessed by NanoDrop 1000 spectrophotometer. DNA samples were sent to Biotools Co., Ltd.for 16S rRNA gene amplification, sequence library construction and sequencing. […] The library DNA was sequenced by IlluminaHiSeq2500 platform, and paired-end reads (250 bp) were generated.
# [7] = Plasma TMAO level by LC-MS/MS; details: female B6 mice, 1.3% carnitine water, 6 weeks; compared to Carnitine group
# Description: as §1
# LC-MS/MS was used to quantify plasma L-carnitine and TMAO in positive MRM mode, with the instrument water UPLC system (Acquity, Waters, Mildford, Mass., USA) and triple quadrupole mass spectrometer (TQS, Waters Micromass, Manchester, UK). […]
# The MS parameters were set as follow: 100° C. for the source temperature, 650° C. for the desolvation temperature, 2 L/h for the cone gas flow, 600 L/h for the desolvation gas flow and 1500 V for the capillary voltage. Cone voltage was set a 10 V. Concentrations of each analyte in samples were determined by calibration curves.
smiles,measurement,setting,value
COc1cc(/C=C/c2ccc(O)cc2)cc(OC)c1 [pterostilbene],hepatic FMO3 mRNA expression level,[1],significant reduction
same,expression of E-selectin in aortas,[2],significantly lowered
same,expression of VCAM-1 in aortas,[3],significantly lowered
same,expression of TNF-α in aortas,[4],significantly lowered
same,plasma carnitine level,[5],increased
same,Erysipelotrichia (Turibacter) proportion / relative abundance,[6]; 6 weeks,decreased
same,relative abundance of Bacteroides,"[6]; genus level, compared to Carnitine group",increased
same,plasma TMAO level,[7],significantly decreased

# — patent publication US20210093582A1, “COMPOSITIONS FOR REDUCING TRIMETHYLAMINE-N-OXIDE AND RELATED THERAPEUTIC APPLICATIONS” (priority 2019, published 2021)
